{"sequences": {"note": "Chains of the proteins cited; added tags and fusions are not shown. Residues count along the entry.", "UniProt P00722, 2-1024": "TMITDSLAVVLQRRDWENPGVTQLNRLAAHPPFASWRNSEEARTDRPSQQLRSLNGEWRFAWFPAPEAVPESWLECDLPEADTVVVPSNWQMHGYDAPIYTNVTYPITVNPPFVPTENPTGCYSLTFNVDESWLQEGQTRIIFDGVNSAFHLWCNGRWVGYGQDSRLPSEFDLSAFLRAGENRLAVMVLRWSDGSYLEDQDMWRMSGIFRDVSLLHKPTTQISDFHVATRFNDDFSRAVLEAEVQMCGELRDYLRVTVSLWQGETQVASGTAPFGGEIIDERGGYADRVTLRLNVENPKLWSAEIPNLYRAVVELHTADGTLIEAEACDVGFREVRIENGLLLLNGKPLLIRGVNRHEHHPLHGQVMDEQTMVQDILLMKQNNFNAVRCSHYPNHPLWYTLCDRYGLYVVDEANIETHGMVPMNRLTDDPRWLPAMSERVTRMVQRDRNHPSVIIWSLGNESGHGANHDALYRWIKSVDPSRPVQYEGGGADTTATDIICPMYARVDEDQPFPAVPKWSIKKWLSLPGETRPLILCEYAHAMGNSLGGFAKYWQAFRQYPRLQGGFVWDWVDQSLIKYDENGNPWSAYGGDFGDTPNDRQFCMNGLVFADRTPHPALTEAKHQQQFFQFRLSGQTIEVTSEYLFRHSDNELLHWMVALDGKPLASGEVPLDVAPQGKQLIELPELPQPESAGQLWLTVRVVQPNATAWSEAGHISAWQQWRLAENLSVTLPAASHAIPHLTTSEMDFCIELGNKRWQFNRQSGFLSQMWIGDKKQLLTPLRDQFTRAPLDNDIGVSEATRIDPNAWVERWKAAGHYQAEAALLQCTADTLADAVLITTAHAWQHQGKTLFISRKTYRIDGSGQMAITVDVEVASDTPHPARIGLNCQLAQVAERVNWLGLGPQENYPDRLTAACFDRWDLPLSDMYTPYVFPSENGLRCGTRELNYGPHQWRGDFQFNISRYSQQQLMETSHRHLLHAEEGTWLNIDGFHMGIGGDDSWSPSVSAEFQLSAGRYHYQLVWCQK"}, "source": "patent US7754694B2", "about": "“Pyrrolo[2, 1-C][1, 4]benzodiazepine-glycoside prodrug useful as a selective anti tumor agent” (priority 2007, dated 2010)", "key": {"[1]": {"tested_on": "A375 cells", "test": "Cell cycle progression by FACS (subG1 and G2/M population) in A375 cells", "type": "cell-based, human", "conditions": "1a 42 μM, 1b 23.4 μM", "source_text": "(§1) The cytotoxic effects of the newly synthesized compounds 1a and 1b and their respective PBD imines were examined by cell cycle progression experiments on human tumor cells, by using fluorescence-activated cell sorting (FACS) analysis, in the absence and in the presence of β-galactosidase enzyme. In the primary flow cytometric study, the DNA content of the cells was used as a major determinant for cell count. The subG1 population, a conspicuous indicator for cell death, presumably apoptosis, and G2/M population was also determined in HepG2 and A375 cell lines."}, "[2]": {"tested_on": "HepG2 cells", "test": "Cell cycle progression by FACS (subG1 and G2/M population) in HepG2 cells", "type": "cell-based, human", "source_text": "as §1\nNext we evaluated the prodrugs for their activation efficiency by intracellular β-galactosidase, in human liver cancer, HepG2 cells."}, "[3]": {"biological_target": "E. coli β-galactosidase (Escherichia coli, UniProt P00722)", "type": "biochemical", "conditions": "in the presence of β-galactosidase, 60-90 minutes, 37° C., pH 7.2 (phosphate buffer)", "experimental": "FIG. 1. A drawing illustrating the effect of the prodrug 1a 1 μmole was treated with 2 units of E. coli β galactosidase enzyme and the progress of the hydrolysis was monitored by reverse phase HPLC. HPLC conditions: C18 Reverse phase column. Mobile phase 40:60 CH3CN/ H2O, flow rate of 1 ml/ min. UV detection: wave length 254 nm.\nThe prodrug 1a 1 μmole was treated with 2 units of E. coli β galactosidase enzyme and the progress of the hydrolysis was monitored by reverse phase HPLC. The results are presented in the form of a graph as illustrated in FIG. 1. Biological Studies Of The Prodrugs"}}, "note": "Entries after “also recorded” stand apart in the source; their conditions may differ. At least one compound was matched to its structure with a doubt left.", "data": [{"smiles": "COc1cc2c(cc1OCc1ccccc1)N(C(=O)OCc1ccc(OC3OC(CO)C(O)C(O)C3O)c([N+](=O)[O-])c1)[C@@H](O)[C@@H]1CCCN1C2=O", "note": "(some centres unmarked) [Compound 1a]", "values": [{"measurement": "apoptosis / cell death in A375 cells with E. coli β-galactosidase", "setting": "[1]; A375, with E. coli β-galactosidase", "result": "apoptosis identical to that of the parent drugs 6a and 6b respectively"}, {"measurement": "amount of cell death in A375 cells in the absence of the enzyme", "setting": "[1]; A375, without β-galactosidase", "result": "insignificant"}, {"measurement": "cytometric profile / apoptotic response in HepG2 cells in the presence of E. coli β-galactosidase", "setting": "[2]; HepG2, with added E. coli β-galactosidase", "result": "comparable to that of the DC-81; also recorded: apoptotic response comparable to that of the parent drug 6a"}, {"measurement": "cytometric profile / apoptotic response in HepG2 cells in the absence of E. coli β-galactosidase", "setting": "[2]; HepG2, without added enzyme (intracellular β-galactosidase)", "result": "apoptotic response comparable to that of the parent drug 6a"}, {"measurement": "activation of the prodrug by β-galactosidase", "setting": "[3]", "result": "activated to their corresponding carbinolamines"}]}]}
